Drawing on paper PMC4661921, this text covers binding for two molecules.

These are yes or no findings as the source states them, for the method shown. Binding seen in cells or lysates may run through a third protein. Some entries that bind do so weakly or less than the wild type. Where a sequence is shown, tags or fusion partners need not be part of it.

The target of assay [1] is T1, Flag-tagged IL-33 (interleukin-33) (human) (UniProt O95760).
T1 sequence: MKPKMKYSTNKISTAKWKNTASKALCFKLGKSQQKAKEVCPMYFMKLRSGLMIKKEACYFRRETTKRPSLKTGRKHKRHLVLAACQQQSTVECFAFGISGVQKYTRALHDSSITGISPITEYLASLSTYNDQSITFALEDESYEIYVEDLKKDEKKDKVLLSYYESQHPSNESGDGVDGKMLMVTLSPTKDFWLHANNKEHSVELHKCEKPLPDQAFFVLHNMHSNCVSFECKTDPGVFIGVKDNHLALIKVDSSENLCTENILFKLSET
Nature of the assay: co-IP; HEK293T cells co-transfected; lysed in RIPA buffer (50 mM Tris-HCl pH 7.5, 150 mM NaCl, 1 mM EDTA, 1% NP-40, 0.25% NaDoc, 10% glycerol); IP with anti-Flag antibody 2 h at 4 °C, protein A/G agarose; immune blot.

In assay [2] the target is T2, Myc-tagged USP17 (ubiquitin-specific protease 17) (human) (UniProt Q6R6M4).
T2 sequence: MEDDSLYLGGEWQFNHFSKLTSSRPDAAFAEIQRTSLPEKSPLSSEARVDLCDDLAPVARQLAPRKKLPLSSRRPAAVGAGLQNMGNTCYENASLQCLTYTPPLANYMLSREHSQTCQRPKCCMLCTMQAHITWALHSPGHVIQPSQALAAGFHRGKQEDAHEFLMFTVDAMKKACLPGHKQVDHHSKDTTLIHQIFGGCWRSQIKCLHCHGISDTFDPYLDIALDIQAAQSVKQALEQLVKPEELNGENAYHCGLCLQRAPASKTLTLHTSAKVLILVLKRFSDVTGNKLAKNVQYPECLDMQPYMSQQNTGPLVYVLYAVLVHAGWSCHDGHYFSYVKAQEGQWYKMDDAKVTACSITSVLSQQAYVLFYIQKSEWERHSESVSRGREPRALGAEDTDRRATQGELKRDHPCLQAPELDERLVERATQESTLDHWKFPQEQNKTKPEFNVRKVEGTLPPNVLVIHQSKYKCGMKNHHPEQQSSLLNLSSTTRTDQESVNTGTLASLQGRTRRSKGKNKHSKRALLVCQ
The experiment in a line: co-IP; reciprocal: HEK293T cells co-transfected; lysed in RIPA buffer; IP with anti-Myc antibody 2 h at 4 °C, protein A/G agarose; immune blot.

B1: Myc-tagged USP17 (ubiquitin-specific protease 17) (enzyme, UniProt Q6R6M4 1-530)
chain: MEDDSLYLGGEWQFNHFSKLTSSRPDAAFAEIQRTSLPEKSPLSSEARVDLCDDLAPVARQLAPRKKLPLSSRRPAAVGAGLQNMGNTCYENASLQCLTYTPPLANYMLSREHSQTCQRPKCCMLCTMQAHITWALHSPGHVIQPSQALAAGFHRGKQEDAHEFLMFTVDAMKKACLPGHKQVDHHSKDTTLIHQIFGGCWRSQIKCLHCHGISDTFDPYLDIALDIQAAQSVKQALEQLVKPEELNGENAYHCGLCLQRAPASKTLTLHTSAKVLILVLKRFSDVTGNKLAKNVQYPECLDMQPYMSQQNTGPLVYVLYAVLVHAGWSCHDGHYFSYVKAQEGQWYKMDDAKVTACSITSVLSQQAYVLFYIQKSEWERHSESVSRGREPRALGAEDTDRRATQGELKRDHPCLQAPELDERLVERATQESTLDHWKFPQEQNKTKPEFNVRKVEGTLPPNVLVIHQSKYKCGMKNHHPEQQSSLLNLSSTTRTDQESVNTGTLASLQGRTRRSKGKNKHSKRALLVCQ
Consider B1, for which the binding result in assay [1] is listed as “binds”.

B2: Flag-tagged IL-33 (interleukin-33) (protein, UniProt O95760 1-270)
chain: MKPKMKYSTNKISTAKWKNTASKALCFKLGKSQQKAKEVCPMYFMKLRSGLMIKKEACYFRRETTKRPSLKTGRKHKRHLVLAACQQQSTVECFAFGISGVQKYTRALHDSSITGISPITEYLASLSTYNDQSITFALEDESYEIYVEDLKKDEKKDKVLLSYYESQHPSNESGDGVDGKMLMVTLSPTKDFWLHANNKEHSVELHKCEKPLPDQAFFVLHNMHSNCVSFECKTDPGVFIGVKDNHLALIKVDSSENLCTENILFKLSET
As for B2, the binding result in assay [2] is reported as “binds”.
